PubChem BioAssay AID504784, Drosophila RNAi Screening Center – 2011

Purpose: 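Fly genes whose silencing alters how much lipid cells keep in droplets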 (primary screen)
System: Drosophila Kc167 embryonic cells
Reagents: long dsRNA against Drosophila genes, about 250 ng dsRNA per well
Duration: 4 days
Conditions: cells fed 400 µM oleic acid bound to BSA
Detection: 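Microscope images give a droplet-to-nucleus area ratio, taken as log and converted to a screen-wide B-score; higher values mean greater lipid storage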
Scale: droplet/nuclear area B-score: higher = more stored lipid (overstorage)
The screen tested about 17,000 reagents; this is a random part of those that have a named target and a result. 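Each column is one replicate's B-score; the combined score over replicates was not deposited, so single values may mislead.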 Not all columns of the deposit are shown.

no.	gene knocked down	DRSC id	droplet/nuclear area B-score, replicate 1	droplet/nuclear area B-score, replicate 2
1	RpL35	DRSC18347	2.59	-1.35
2	CG9886	DRSC00732	-0.703	0.227
3	CG10903	DRSC14281	-0.554	-0.0864
4	CG30096	DRSC21744	1.22	1.44
5	Cul5	DRSC14723	-0.196	0.333
6	ncm	DRSC02179	0.0333	-0.145
7	CG32235	DRSC23257	0.00886	1.12
8	dac	DRSC03518	-0.273	2.7
9	CG5611	DRSC15843	1.36	-0.729
10	asl	DRSC12319	-0.215	-2.97
11	pot	DRSC19850	0.00985	1.99
12	to	DRSC17086	0.52	1.55
13	mspo	DRSC07652	-0.637	-2.11
14	Lim3	DRSC02475	0.0992	1.73
15	Lim3	DRSC03363	4.52	7.06
16	Lim3	DRSC22183	3.48	2.57
17	Lim3	DRSC22650	-3.43	-1.51
18	Lim3	DRSC23034	0.176	3.3
19	Paics	DRSC20305	1.36	0.618
20	Pfas	DRSC03480	-0.86	-0.394
21	FucTA	DRSC10733	0.66	1.16
22	Zmynd10	DRSC09826	-0.573	0.037
23	Cp36	DRSC18452	0.115	-0.492
24	CG18404	DRSC15323	0.364	
25	CG11368	DRSC17778	-1.22	-0.747
26	HisT	DRSC05051	0.769	-0.664
27	HisT	DRSC06405	2.76	
28	CCHa1	DRSC14821	-2.22	-0.973
29	CG8840	DRSC00713	-2.73	-0.696
30	CG32733 (retired record)	DRSC17481	2.25	0.63
31	slpr	DRSC18225	0.708	-0.155
32	slpr	DRSC23321	-1.08	0.116
33	Poc1	DRSC09713	-1.25	-0.799
34	Idh3a	DRSC19446	-0.214	0.173
35	EcR	DRSC04906	-0.717	-1.03
36	EcR	DRSC04910	0.379	1.21
37	CG5174	DRSC06920	0.559	-0.368
38	Alg14	DRSC19983	2.19	0.396
39	CG1024	DRSC12496	-0.743	0.947
40	CG6126	DRSC15971	2.28	-1.7
41	CG1827	DRSC06719	0.698	-0.171
42	CG42254 (retired record)	DRSC06194	-1.04	0.0414
43	CG31636	DRSC02276	-1.73	-0.0235
44	Nup154	DRSC03384	-0.905	-0.27
45	CG18417	DRSC10319	-0.696	-0.667
46	HHEX	DRSC16186	-0.131	0.514
47	CG32669	DRSC18864	2.25	1.41
48	CG9394	DRSC04550	-2.09	0.0724
49	Pp1alpha-96A	DRSC16795	-0.625	-0.0207
50	Pp1alpha-96A	DRSC23320	0.63	0.971
51	Ntf-2	DRSC20552	0.549	-0.707
52	CG14840	DRSC14964	-0.61	0.65
53	Nup43	DRSC16279	-1.57	-5.05
54	Rpn13	DRSC06379	0.614	-0.175
55	Irk3	DRSC02047	-0.687	2.11
56	CG3253	DRSC04350	0.0722	0.367
57	CG11842	DRSC14400	-0.169	
58	Scp1	DRSC20799	0.816	-0.125
59	Scp1	DRSC20803	0.353	-1.46
60	Scp1	DRSC20806	-1.93	-1.96
61	CG30324	DRSC22655	-0.712	0.647
62	Snr1	DRSC12369	2.48	0.286
63	CG13912	DRSC08381	-0.564	-0.0256
64	blot	DRSC09485	0.0334	1.57
65	blot	DRSC11328	0.257	-0.763
66	v	DRSC20383	0.458	-0.691
67	CG4586	DRSC18373	1.58	0.665
68	CG15040	DRSC19616	-0.162	-0.549
69	CG15040	DRSC21482	-0.358	-0.679
70	Br140	DRSC06755	-3.59	-4.93
71	CG13870	DRSC06429	0.104	-0.463
72	CG3808	DRSC10377	1.03	1.01
73	CG30002	DRSC05182	-0.748	-0.648
74	CG11345	DRSC08176	-3.08	-1.98
75	Larp4B	DRSC08192	-0.581	6.17
76	Larp4B	DRSC23201	-1.48	-0.353
77	Tig	DRSC03456	0.519	0.825
78	vls	DRSC02101	-1.4	1.15
79	NC2beta	DRSC01895	0.938	0.783
80	CG33333	DRSC13233	-0.114	-1.33
81	hts	DRSC07629	-0.0215	-1.81
82	Lkb1	DRSC16481	-3.18	1.64
83	Or82a	DRSC11996	-2.83	4.61

Single entries from above:
For “droplet/nuclear area B-score, replicate 1”, hts [DRSC07629] is entered as -0.0215
Lim3 [DRSC23034], droplet/nuclear area B-score, replicate 2 = 3.3
Under “droplet/nuclear area B-score, replicate 1”, EcR [DRSC04910] reads 0.379
CG3808 [DRSC10377], droplet/nuclear area B-score, replicate 2 = 1.01
Result for Pp1alpha-96A [DRSC16795] under “droplet/nuclear area B-score, replicate 1”: -0.625
Value for Poc1 [DRSC09713] under “droplet/nuclear area B-score, replicate 1”: -1.25
